Reference: patent publication US12103983B2, “Compound and angiogenic agent comprising same” (HiPep Laboratories, priority 2018, dated 2024)
Some of these results come from one statement about several compounds together. Bridge positions count the residues as written; N and C are the ends. Square brackets hold non-standard residues; d marks the D form. Peptide text beside a SMILES is read from it. AEEA = NCCOCCOCC(=O)O

System: human umbilical vein endothelial cells (HUVEC)
Assay: Angiogenesis assay (tubular structure formation on extracellular matrix gel)
Format: cell-based
Details: angiogenic factor 1 μg/mL, Hour 72 in the culture

Compound	tubular structures maintained
CC(C)CC(NC(=O)CNC(=O)C(Cc1ccccc1)NC(=O)C(NC(=O)C(NC(=O)C(CO)NC(=O)COCCOCCN)C(C)C)C(C)C)C(=O)NC(CCCNC(=N)N)C(N)=O (stereo not drawn) [AGP-O2Oc, O2Oc-SVVFGLR-NH2] (H-[AEEA]SVVFGLR-NH2; configuration not given here)	maintained
CC(C)CC1NC(=O)CNC(=O)C(Cc2ccccc2)NC(=O)C(C(C)C)NC(=O)C(C(C)C)NC(=O)C(CO)NC(=O)COCCOCCNC(=O)C(N)CSSCC(C(N)=O)NC(=O)CNC(=O)C(CCCNC(=N)N)NC1=O (stereo not drawn) [cAGP2, Cyclic(DCys-O2Oc-SVVFGLR-G-DCys)-NH2] (H-C[AEEA]SVVFGLRGC-NH2; disulfide 1-11; configuration not given here)	maintained
CC(C)CC1NC(=O)CNC(=O)C(Cc2ccccc2)NC(=O)C(C(C)C)NC(=O)C(C(C)C)NC(=O)C(CO)NC(=O)COCCOCCNC(=O)CCC(C(N)=O)NC(=O)C(CCCNC(=N)N)NC1=O (stereo not drawn) [cAGP-1, Cyclic(O2Oc-SVVFGLRQ)-NH2] ([AEEA]SVVFGLRE-NH2; lactam N-9; configuration not given here)	maintained
